# Laboratory results from patent US3997518A, “2-Alkyl-4-carboxyalkyl-5-(3,3'-dimethyltriazeno)-imidazoles” (Beecham Group Limited, priority 1970, dated 1976).
# The name of at least one read-out is uncertain.
# System: R1 lymphoma
# Assay: Activity against R1 lymphoma, increase in survival time (Table B, slightly different strain)
# Assay type: in vivo, mice
# Conditions: 64 mg/kg i.p. daily day 3 to day 7, dose of maximum increase
# Experimental: The R1 lymphoma is normally sensitive to anti-metabolites. Typically mice having a transplant of 1.5 × 10^6 tumour cells die from the metastisizing tumour on day 9, 10 or 11 after transplant.
# The compounds illustrated below were dosed by the intra peritoneal route in a vehicle of 10% acetone in arachas oil daily from day 3 to day 7 after tumour transplant. The increase in survival time over control was measured.
# The dose reported is that dose which gave the maximum increase in survival time. Lower doses gave less activity and higher doses are toxic.
# The results are split into two sections (in Table A and Table B) because two slightly different strains of R1 lymphoma were used.
smiles,measurement,setting,value
"CCOC(=O)c1nc(SC)[nH]c1N=NN(C)C [4-Carbethoxy-5-(3,3-dimethyltriazeno)-2-methylmercapto imidazole]",Medium % increase in survival time,,67%
same,Medium % increase in survival time,"listed as 4-Carbethoxy-5-3,3-dimethyl triazeno-2-methylmercapto imidazole",100%
